Reference: the supplement of paper PMC5949888
Most values lie at the floor of the assay. Slopes are relative: functional sequences can read slightly below zero.

tested on: Saccharomyces cerevisiae PS128 hsf1 delta, HSF1(1-493) fusion; assay: growth estimate (transactivation domain function in HSF1 fusion, heat-shock survival) (a.u. (slope of normalised read count over time)); higher = stronger growth at 37°C, i.e. more transactivation activity; settings: library: random library

| Substance | growth estimate |
| --- | --- |
| SPPRLGAKGFKNIIVGQPHR | < -0.25 |
| AIPMDSTTESLT | < -0.25 |
| GGTPNFFSSWSVKSTTTQFE | < -0.25 |
| GGLRVG | < -0.25 |
| TEDT | < -0.25 |
| ELWFPWRKIIVRWVITHNSR | < -0.25 |
| TGEFHSLSGIIWRSGVFESG | < -0.25 |
| LWHGWNELSSVYKCITYFKS | < -0.25 |
| VENQW | < -0.25 |
| SLTRETSPCFWGNGVTVSLV | < -0.25 |
| TSRTA | < -0.25 |
| DPLVCE | < -0.25 |
| VKSWGFSVGITSYGEAPAGV | < -0.25 |
| VKVLISFIVWDPGSRR | < -0.25 |
| IHSMESRAEFRPTICLH | < -0.25 |
| LDTAGGHAVVHPVCVGSDKS | < -0.25 |
| YIRLN | < -0.25 |
| LGVVVIGHIGIVLYIGGPHR | < -0.25 |
| SISIPKSCLFLGWARKDRSD | < -0.25 |
| PQPCRHRVKGRTLHVAIPRS | < -0.25 |
| VAHPSMHVTSSLS | < -0.25 |
| RHWRALPCIRRSAQLVVVWL | < -0.25 |
| SVIRKGSGGLNAQEWPAVCR | < -0.25 |
| ASLNCRRVCAGPGTFGNAVL | < -0.25 |
| VVAFIKGGVPKG | < -0.25 |

Rewritten with tabs: part of the list above.
Substance	growth estimate
RHWRALPCIRRSAQLVVVWL	< -0.25
SVIRKGSGGLNAQEWPAVCR	< -0.25
ASLNCRRVCAGPGTFGNAVL	< -0.25

The list goes on:

| Substance | growth estimate |
| --- | --- |
| SAYCAPCVSKDRVGTIVAGC | < -0.25 |
| VEHMSRSGINLSLNGVC | < -0.25 |
| CETESVFTFCMYARTDTGSS | -0.207 |
| VLCVLTNRSHPEKVVIVYTR | < -0.25 |
| NACDWCGSQTAVSVRKHPSE | < -0.25 |
| VHFRT | < -0.25 |
| LARYVL | < -0.25 |
| PAYKLTVVSASAAHKESLYS | < -0.25 |
| QQNSRPRGSHARHTRSILVT | < -0.25 |
| EVI | < -0.25 |
| RDCETVVAVSERKGEWLAKE | < -0.25 |
| RPLDVSENRTLGDLLGCAHF | < -0.25 |
| LQNTRSWKRHDIVFVLKPST | < -0.25 |
| CTSSRGRNCHAELNHLTGHR | < -0.25 |
| PSSQVVAKVRVFGHVDEQKG | < -0.25 |
| NFRRAGDRNTFTRHARALID | < -0.25 |
| TSADGTTRTDSKGNSSFCSR | < -0.25 |
| GRGDSVRLRKLVDASPRGWV | < -0.25 |
| VSTVSRVCIRLSKR | < -0.25 |
| VDRIGLGPVYIFLTTSEHLA | < -0.25 |
| FSHNCGGPSLTTAVVSLANR | < -0.25 |
| GVTSLRR | < -0.25 |
| IVKAELSMKVTVWAILKVAR | < -0.25 |
| FRC | < -0.25 |
| FNCTYSQ | -0.246 |

| Substance | growth estimate |
| --- | --- |
| DTAASTSIDHRGEGNPAGAY | < -0.25 |
| TGLAFFLGCKTTL | < -0.25 |
| VYTDSGDYDIYSP | < -0.25 |
| CDPEGVIGQSRYLLKRDRNC | < -0.25 |
| PDGAKAVAWDVVRNIRTSQE | < -0.25 |
| PEKGPDP | < -0.25 |
| LKLLLDACCMKQVYAIYRRI | < -0.25 |
| RGQTRYLPCRYLLTHPGKVY | < -0.25 |
| HGGSRSQKPRWPYRAQEVHT | -0.245 |
| ALRFNGETWVPRFTSPSSLR | < -0.25 |
| HRRGYPFLVTSRDSQFSARK | < -0.25 |
| ESTR | < -0.25 |
| HVLVR | < -0.25 |
| LDWNAPTTAWTDGVSVRERG | < -0.25 |
| GECSP | -0.248 |
| GGLVR | < -0.25 |
| GRVQSVCPYFREAGRRP | < -0.25 |
| RVHAIIARRGI | < -0.25 |
| AVWFWFILVT | < -0.25 |
| QGDSRPPSLPVRVVLV | < -0.25 |
| FGLEPGLEFSIFSGVMFLLV | < -0.25 |
| QAFTRVLTVRHRGGTSC | < -0.25 |
| TLGPVYYGRTVYTVVHFR | < -0.25 |
| GLFLGDRGHTKPRKSGAAQS | < -0.25 |
| NVPSGIRTGDL | < -0.25 |

| Substance | growth estimate |
| --- | --- |
| NRPLDTLGISQSLARRGELV | < -0.25 |
| APSVS | < -0.25 |
| EGPELGIGASRIR | < -0.25 |
| VKVHEVRRQVRNHGGQTVCQ | < -0.25 |
| SEGS | < -0.25 |
| SRPNTTIGLPQLSYPGVNAA | -0.243 |
| GILPLLLHLGSWRNTMVCKR | < -0.25 |
| FDVGGSVEQRSIV | < -0.25 |
| AHSSARINGPSYDASAFYDE | < -0.25 |
| GSAGTRGLGG | < -0.25 |
| VLKSALRDYKRTTCLPFRRR | < -0.25 |
| VRWIGLRPVISRPESLA | < -0.25 |
| RLHVKLCYTPSRYTQD | -0.246 |
| SSGSGDPWQ | < -0.25 |
| TCHAVRFGLVTRSCTFHVMV | -0.228 |
| RLIRSKDIFSGDRQHFGCEE | < -0.25 |
| YQAKARAAR | < -0.25 |
| PRNLTMTQSIKYRILER | < -0.25 |
| GVNTYGPATAIIRIS | < -0.25 |
| WTRKWTICTIRIAIEVKEPV | < -0.25 |
| RAKRWVTPSICAGKLDRKRH | < -0.25 |
| IPRCNCRRVIGVCGKSLFSA | < -0.25 |
| TDGKSGPWIKTYLDGSGSLR | < -0.25 |
| FLDWLPEARRVLWEVWDQMI | < -0.25 |
| FAPLRTYTSYIDGTDAWFNG | -0.159 |

| Substance | growth estimate |
| --- | --- |
| IRSDRGMFKVRLTAGVIRPQ | < -0.25 |
| TRGIR | < -0.25 |
| PRGVSQGETVLSVSTIAILC | < -0.25 |
| SRVAQRSQTYFHPSC | < -0.25 |
| NHPVIFRDVSDATAGTQSAR | < -0.25 |
| LWRKCPCRDRLDRSVVVQDI | < -0.25 |
| ENWQGRRSGRAGSMQQCLCG | < -0.25 |
| ARRWGFWGYAGQL | < -0.25 |
| WVRLPPIGPGVCPLVTIRGL | < -0.25 |
| FRRIYFERVKLSNVYYDSRI | < -0.25 |
| TCRVYMLTEHGVKKRVTT | < -0.25 |
| NRLKQKRL | < -0.25 |
| VKTCARLLS | < -0.25 |
| GASCLFLRQQPHICLVLDYP | < -0.25 |
| IAKVLVKTRGDLTFQRSGSE | < -0.25 |
| MQLWVVLNIRFTFSGR | < -0.25 |
| GIICVTLVAGGRVEWACIGC | < -0.25 |
| TLSEVKVVHRTDKR | -0.246 |
| ARLPAL | < -0.25 |
| QIWCPAAIALGRNSRGQGIP | < -0.25 |
| FRGQLLGDRF | < -0.25 |
| RRLWPTLTCRKVLVGTHVKD | < -0.25 |
| HNGLTNAKL | < -0.25 |
| IDPFRWTRGIKAATVVTGCR | < -0.25 |
| TVWSCGQEPGLILAWDC | -0.141 |

Given comma-delimited: part of the list above.
Substance,growth estimate
FRRIYFERVKLSNVYYDSRI,< -0.25
TCRVYMLTEHGVKKRVTT,< -0.25

Continued.

| Substance | growth estimate |
| --- | --- |
| YLSGRTSTGLVFVASGLAES | < -0.25 |
| MLAD | < -0.25 |
| GGLMSEALFEQRENCSERSF | < -0.25 |
| DTDAC | < -0.25 |
| NSTT | < -0.25 |
| PLLIVS | < -0.25 |
| RVWDPYRDACFP | -0.227 |
| ERQIGRGYNTRCVWRYYINC | < -0.25 |
| RSKSARRLSRDRPIWQRLRS | < -0.25 |
| GSGNFTMSPAEPLIS | -0.243 |
| IPSIAVVGSRTRDSGPLAGH | < -0.25 |
| LAGQVILPRRTEQQYSRSPW | -0.248 |
| GEKTKLIAKP | < -0.25 |
| PTQCLSKKVITHGEDHTLTE | < -0.25 |
| GGPALVLYFCSRPGQTPRSS | < -0.25 |
| GTYRSVCSGGVASKRY | < -0.25 |
| LMVS | < -0.25 |
| QIPGMDLIPRRRTPYPVY | < -0.25 |
| TPAN | < -0.25 |
| NYAPS | < -0.25 |
| NPVGKALRKMSRIARLARNR | < -0.25 |
| VMKRVPAKSYQ | < -0.25 |
| RLLKGDLMGRSREMCKG | < -0.25 |
| NYGPAADVLVKIGPNLG | < -0.25 |
| ATGRHDNNGEIAGGNVSGAR | < -0.25 |

| Substance | growth estimate |
| --- | --- |
| YVLIETRVSIQAVA | -0.25 |
| GEIGYL | -0.246 |
| GYGRGTERAHTAGVIGYHWA | -0.0581 |
| VSLKHRRNGSVGGRSLISSH | < -0.25 |
| RMKRSSPCNGWSGLRECVGQ | < -0.25 |
| VLCFRARRGS | < -0.25 |
| GPFCCRHRNRYIMSPIWTAP | < -0.25 |
| GSQFPYRQTGPYLVGEVAYC | < -0.25 |
| QSAQLTPRLPFFLRREQRAY | < -0.25 |
| LFLWNLLCYEVSGDRCASVF | -0.248 |
| LRLTSMDARHLCETDVGQ | < -0.25 |
| HHI | < -0.25 |
| IKQVS | < -0.25 |
| PKAVVAQGLCSLTHTYRADY | -0.214 |
| DVALWWTAFRMWNGN | < -0.25 |
| LVRGRMRWREGSTTFSPWPA | < -0.25 |
| SMSISVLGHQQM | < -0.25 |
| SGPARGLWQSEDN | < -0.25 |
| TGTLGSQRLNADGLYFRSHL | < -0.25 |
| YSSALISNAYEVYVSLNLWL | < -0.25 |
| ATSSSGVRPFPIRKPCLLAP | < -0.25 |
| GRGL | < -0.25 |
| AKCHQRKSHSAGALS | < -0.25 |
| RPGEE | -0.23 |
| RNNTLRDRRHAPDAKSANCA | < -0.25 |

| Substance | growth estimate |
| --- | --- |
| RVRMARSELGRKIL | < -0.25 |
| RQGQ | < -0.25 |
| LPTYSKEIRPLVQNALRAVT | < -0.25 |
| RIWNRCDEPSQLSDGR | < -0.25 |
| LGCSER | < -0.25 |
| HTYGPS | < -0.25 |
| YDVNFTAFIALGRIE | -0.228 |
| IMSSNQCQLRHSEVSRTSHL | < -0.25 |
| YDGRGHGGIVQDRL | < -0.25 |
| ADDLHMLNGSIPPGGGRGVL | < -0.25 |
| STWYTTNLPIGSVSTLRTCA | < -0.25 |
| HYRHESDRNAGNPLQGATRY | < -0.25 |
| QVDV | < -0.25 |
| LTHMRKERPDGIALPHGIAT | < -0.25 |
| RGLPKGAKSGTPDVGKTLRM | < -0.25 |
| RQGTTRANSAEF | < -0.25 |
| YHVSVPCNCHGKLDIEFGTP | < -0.25 |
| LGLYQVDHSIEPAVPPHK | < -0.25 |
| GVSRC | < -0.25 |
| PDSET | < -0.25 |
